The target of one test is T1, GST-Drebrin E (UniProt Q16643).
T1 sequence: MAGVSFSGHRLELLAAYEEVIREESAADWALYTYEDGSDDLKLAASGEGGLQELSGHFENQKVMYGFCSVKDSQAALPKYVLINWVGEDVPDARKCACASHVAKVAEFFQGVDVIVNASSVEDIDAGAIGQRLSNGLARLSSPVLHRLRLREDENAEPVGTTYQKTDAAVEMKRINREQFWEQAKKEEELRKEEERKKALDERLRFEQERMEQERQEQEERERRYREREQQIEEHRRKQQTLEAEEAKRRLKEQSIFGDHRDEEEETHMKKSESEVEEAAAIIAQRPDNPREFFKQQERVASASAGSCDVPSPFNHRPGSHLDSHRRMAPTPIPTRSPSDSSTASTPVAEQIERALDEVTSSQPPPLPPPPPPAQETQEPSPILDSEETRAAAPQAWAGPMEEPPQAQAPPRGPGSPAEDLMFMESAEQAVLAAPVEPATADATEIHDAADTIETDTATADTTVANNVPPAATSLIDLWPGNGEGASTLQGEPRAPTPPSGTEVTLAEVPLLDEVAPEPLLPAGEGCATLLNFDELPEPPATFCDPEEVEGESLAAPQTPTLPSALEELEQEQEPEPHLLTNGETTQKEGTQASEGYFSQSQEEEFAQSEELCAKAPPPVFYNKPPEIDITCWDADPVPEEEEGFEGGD
Briefly: pull-down; HEK293T cells co-transfected with one GST-tagged and one HA-tagged construct; lysate on glutathione sepharose beads, 4°C, 6 h to overnight; 20 mM Tris pH 7.4, 150 mM NaCl, 1% NP-40; immunoblot with anti-HA and anti-GST. Background: In western blotting, separated proteins are transferred to a membrane and probed.

By UniProt entry, the sequences of proteins in these tests, tags left out.
UniProt Q12774: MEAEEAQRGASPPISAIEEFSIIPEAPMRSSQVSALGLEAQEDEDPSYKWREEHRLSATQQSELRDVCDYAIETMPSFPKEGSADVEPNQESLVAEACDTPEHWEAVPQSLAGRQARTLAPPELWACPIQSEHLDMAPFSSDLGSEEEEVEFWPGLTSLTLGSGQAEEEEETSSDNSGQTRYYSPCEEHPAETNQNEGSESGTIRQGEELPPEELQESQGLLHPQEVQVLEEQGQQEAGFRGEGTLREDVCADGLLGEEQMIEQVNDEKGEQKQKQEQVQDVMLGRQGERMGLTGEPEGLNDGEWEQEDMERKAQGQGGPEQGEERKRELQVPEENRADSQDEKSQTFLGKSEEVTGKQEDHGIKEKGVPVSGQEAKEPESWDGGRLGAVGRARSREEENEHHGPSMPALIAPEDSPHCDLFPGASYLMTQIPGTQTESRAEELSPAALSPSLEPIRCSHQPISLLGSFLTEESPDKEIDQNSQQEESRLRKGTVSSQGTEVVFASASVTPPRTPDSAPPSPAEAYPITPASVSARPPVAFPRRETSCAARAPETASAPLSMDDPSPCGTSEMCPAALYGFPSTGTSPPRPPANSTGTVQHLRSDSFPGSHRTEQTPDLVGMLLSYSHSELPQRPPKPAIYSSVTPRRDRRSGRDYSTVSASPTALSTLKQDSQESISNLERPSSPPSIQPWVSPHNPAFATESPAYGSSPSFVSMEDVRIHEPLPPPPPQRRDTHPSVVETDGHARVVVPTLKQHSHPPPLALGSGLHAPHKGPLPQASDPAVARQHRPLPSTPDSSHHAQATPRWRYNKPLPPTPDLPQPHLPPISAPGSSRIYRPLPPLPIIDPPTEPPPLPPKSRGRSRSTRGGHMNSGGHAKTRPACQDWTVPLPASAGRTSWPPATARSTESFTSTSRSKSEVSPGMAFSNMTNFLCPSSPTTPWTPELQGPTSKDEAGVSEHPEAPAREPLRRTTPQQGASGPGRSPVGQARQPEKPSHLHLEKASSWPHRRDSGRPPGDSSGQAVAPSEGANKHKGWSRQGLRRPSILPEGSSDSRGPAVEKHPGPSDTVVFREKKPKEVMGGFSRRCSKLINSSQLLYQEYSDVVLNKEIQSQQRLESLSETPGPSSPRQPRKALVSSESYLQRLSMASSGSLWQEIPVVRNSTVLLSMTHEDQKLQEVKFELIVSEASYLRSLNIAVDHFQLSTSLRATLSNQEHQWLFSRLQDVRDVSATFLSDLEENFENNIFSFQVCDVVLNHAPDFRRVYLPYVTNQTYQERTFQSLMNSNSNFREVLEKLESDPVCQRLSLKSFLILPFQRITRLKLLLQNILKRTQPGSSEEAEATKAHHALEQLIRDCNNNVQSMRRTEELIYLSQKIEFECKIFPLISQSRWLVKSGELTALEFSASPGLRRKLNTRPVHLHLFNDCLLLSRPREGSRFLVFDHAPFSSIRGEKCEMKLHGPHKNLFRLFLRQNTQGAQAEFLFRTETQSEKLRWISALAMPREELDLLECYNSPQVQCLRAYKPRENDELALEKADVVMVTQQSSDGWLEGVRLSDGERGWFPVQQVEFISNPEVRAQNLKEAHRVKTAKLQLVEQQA

The target of test [1] is GST-ARHGEF5 expressed in HEK293T cells (not stated (human or rodent cDNA cloned)) (UniProt Q12774). In words: pull-down; HEK293T cells transfected with GST-ARHGEF5, HA-Drebrin E and HA-Cdk5 together; lysate on glutathione sepharose beads; immunoblot with anti-GST and anti-HA.

Results are given in words; binding and its absence hold for the method and conditions named. In cells and extracts the contact can be indirect. Some results given as binding are weak or reduced against the parent protein; the word gives no strength. For some assays here: Where a sequence is shown, tags or fusion partners need not be part of it.

As for HA-ARHGEF5 (from UniProt Q12774 1-1597), the binding result in the test with GST-Drebrin E is “binds”.

With “HA-Cdk5 (Cyclin-dependent kinase 5) (from UniProt Q00535 1-292) (enzyme)”, in test [1], the binding result is listed as “binds”.
